Reference: patent US20090175845A1, “METHODS FOR IDENTIFYING COMPOUNDS THAT MODULATE PHB DOMAIN PROTEIN ACTIVITY AND COMPOSITIONS THEREOF” (THE TRUSTEES OF COLUMBIA UNIVERSITY IN THE CITY OF NEW YORK, priority 2005, published 2009)
At least one structure is not confirmed: it was looked up by name or label, or the drawing left a doubt.

Target: T1, PHB domain of Podocin (Mus musculus, UniProt Q91X05)
T1 construct: NusA (N); His; made in house
T1 sequence (Q91X05 119-284 limits assumed): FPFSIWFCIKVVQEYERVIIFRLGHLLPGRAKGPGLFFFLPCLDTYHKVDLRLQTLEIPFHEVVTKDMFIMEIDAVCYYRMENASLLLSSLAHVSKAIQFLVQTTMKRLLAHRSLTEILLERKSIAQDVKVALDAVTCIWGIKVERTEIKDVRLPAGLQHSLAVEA
Experiment: Glucocorticoid binding to recombinant Podocin truncations on beads, scintillation counting
Conditions: compared with cholesterol, FIG. 12

## C[C@@H]1C[C@H]2[C@@H]3CCC4=CC(=O)C=C[C@]4(C)[C@@]3(F)[C@@H](O)C[C@]2(C)[C@@]1(O)C(=O)CO [dexamethasone]
  binding of radioactively labeled steroid to the PHB domain of Podocin: interact
Listed as glucocorticoid
  binding of radioactively labeled steroid to the PHB domain of Podocin: approximately as well as cholesterol
